# Experimental data from PubChem BioAssay AID540276 (National Center for Advancing Translational Sciences (NCATS), 2011).
# Among all 300,000 compounds or so, about 5,400 (1.8%) were called active. The shares of active, inactive and inconclusive entries below differ from those in the screen. The call rests on the fitted dose curve; tested in HEK293 cells. Potencies of inconclusive entries are doubtful fits and often do not repeat.
# Test: qHTS for inhibitors of binding or entry into cells for Marburg Virus
# Conditions: Marburg virus pseudotyped entry inhibition, cell reporter; activity change, negative = inhibition: at 37.8 µM (top of the series) unless noted
# On the % scale 0 is the no-effect control and ±100 the full control effect; potency means the concentration at half of the fitted maximal effect.
Structure (SMILES),Potency,"activity change, negative = inhibition"
Cc1nc2ccccc2cc1C(=O)N/N=C/c1ccco1,"inconclusive: 16.4 µM [inhibitor, single point]",
CCN(CC)c1ccc(/C=C(\C#N)C(N)=O)cc1,"inconclusive: 35.5 µM [activator, single point]",
CCC(C)n1c(SCC(=O)NC(=O)c2cccn2C)nc2ccccc2c1=O (configuration not stated),"inconclusive: 35.5 µM [inhibitor, single point]",
Cc1cc(=O)oc2cc(OS(C)(=O)=O)ccc12,"inconclusive: 0.562 µM [activator, single point]",
O=C(c1cc2nc(-c3ccc(F)cc3)cc(C(F)(F)F)n2n1)N1CCCCC1c1cccnc1 (configuration not stated),"inconclusive: 7.94 µM [inhibitor, partial curve, poor fit]",
Cn1c(=O)[nH]c(=O)c2c1nc(CN1CCOCC1)n2Cc1ccccc1,,inactive: 4.39%
CN(C)/C=N/c1ncc(C(=O)c2ccc3ccccc3c2)s1,"inconclusive: 32.6 µM [inhibitor, single point]",
Cc1ccc(-c2noc(CCC(=O)NCC3CCN(Cc4cccc(C)c4)CC3)n2)cc1,"inconclusive: 22.4 µM [inhibitor, partial curve, poor fit]",
CCOc1cc(CNc2ccc3c(c2)OCCO3)cc(Br)c1OC,"inconclusive: 4.47 µM [inhibitor, partial curve, poor fit]",
CN(C)S(=O)(=O)c1cccc(CSCc2cccc(S(=O)(=O)N(C)C)c2)c1,"inconclusive: 8.91 µM [inhibitor, partial curve, poor fit]",
COc1ccc(CNC(=O)C(c2ccncc2)N(C(=O)Cc2cccs2)c2ccccc2)cc1 (configuration not stated),"inconclusive: 6.31 µM [inhibitor, single point]",
Cc1ccc2nc(NC(=O)C3CCN(S(=O)(=O)c4cc([N+](=O)[O-])ccc4Cl)CC3)sc2c1,active: 8.2 µM,
Cc1ccccc1CNC(=O)CC1C(=O)NCCN1Cc1c(F)cccc1Cl (configuration not stated),,inactive: 6.02% [at 46.1 µM]
COC(=O)c1ccc(-n2cncn2)c([N+](=O)[O-])c1,"inconclusive: 1.58 µM [activator, partial curve, poor fit]",
COc1cccc(-n2c(C)c(C(C)=O)c(C(C)=O)c2C)c1,,inactive: -8.12%
Cc1ccc(Nc2ccc(S(=O)(=O)N3CCOCC3)cc2[N+](=O)[O-])c(C)c1,"inconclusive: 35.5 µM [inhibitor, single point]",
O=C(NNC(=O)C12CC3CC(CC(C3)C1)C2)[C@@H]1C[C@H]1c1ccccc1,,inactive: -3.25% [at 46.1 µM]
Cc1ccn2c(NC3CCCC3)c(-c3ccccn3)nc2c1,"inconclusive: 35.5 µM [inhibitor, single point]",
CCCc1cc(=O)[nH]c(SCC(=O)NC(=O)NC2CCCC2)n1,"inconclusive: 0.199 µM [inhibitor, full curve, poor fit]",
CCC(C)NCCOCCOc1ccc(Br)cc1C (configuration not stated),"inconclusive: 9.2 µM [inhibitor, partial curve, poor fit]",
c1ccc(CNc2oc(-c3ccccc3)nc2-c2cccc3ccccc23)cc1,inactive,
Cc1ccc(S(=O)(=O)c2nc(-c3ccc(F)cc3)oc2SCC(N)=O)cc1,"inconclusive: 0.0651 µM [inhibitor, full curve, poor fit]",
Cc1ccc2nc(SCC(=O)N3CCC(Cc4ccccc4)CC3)nc(=O)n2c1,"inconclusive: 35.5 µM [inhibitor, single point]",

Structure (SMILES),Potency,"activity change, negative = inhibition"
O=C(Nc1ccccn1)c1ccc(=O)[nH]n1,"inconclusive: 8.91 µM [activator, partial curve]",
COc1cc(-c2nc(CN3CCN(c4ncccn4)CC3)c(C)o2)ccc1F,,inactive: -2.68% [at 14.2 µM]
O=C(CCc1nc(-c2ccccc2Cl)no1)Nc1cccnc1,,inactive: -2.53% [at 46.1 µM]
c1ccc(OCc2ccc(CCCN3CCOCC3)cc2)cc1,"inconclusive: 0.562 µM [activator, full curve, poor fit]",
COc1cccc(NC(=O)C2CCN(c3nnc(-n4c(C)ccc4C)s3)CC2)c1,,inactive: 11.1% [at 46.1 µM]
COc1cccc(CN2CCCN(S(=O)(=O)c3ccc(Br)cc3)CC2)c1,"inconclusive: 25.1 µM [inhibitor, single point]",
O=C(Nc1cccc(-c2cnc3ccccc3n2)c1)c1ccco1,"inconclusive: 5.62 µM [inhibitor, partial curve, poor fit]",
O=C(O)c1ccc(N=NNc2cccc([N+](=O)[O-])c2)cc1,"inconclusive: 0.631 µM [activator, full curve, poor fit]",
NC(=O)c1cnn(-c2cc(Oc3ccccc3)ncn2)c1N,"inconclusive: 5.62 µM [activator, single point]",
Cc1ccc(S(=O)(=O)Nc2ccsc2C#N)cc1,"inconclusive: 20 µM [activator, partial curve, poor fit]",
Nc1nc(-c2ccc3c(c2)CCCC3)cs1,"inconclusive: 0.562 µM [activator, full curve, poor fit]",
O=[N+]([O-])c1ccc(-c2cnc(NO)nc2)cc1,,inactive: -25.8%
Nc1nc(=O)n(C2CC(O)C(CO)O2)cc1F (configuration not stated),"inconclusive: 0.1 µM [inhibitor, full curve, poor fit]",
O=C(/C=C/c1ccco1)Oc1cc(Br)cc(/C=N/NC(=O)c2ccccc2O)c1,"inconclusive: 2.82 µM [inhibitor, full curve]",
O=C(O)Cc1ccc(NC(=O)c2ccc(NC(=O)c3ccco3)cc2)cc1,,inactive: 2.2%
COC(=O)[C@@]1(C=C2c3ccccc3[C@@H](OC)[C@@H]2C)[C@@H]2Oc3ccccc3[C@@H]21,"inconclusive: 0.531 µM [activator, single point]",
OCC1(CCOc2ccccc2)CCN(Cc2ccc(OC(F)F)cc2)CC1,"inconclusive: 10 µM [inhibitor, partial curve, poor fit]",
CCOc1ccccc1/C=C/C(=O)c1ccc(Cl)cc1,"inconclusive: 0.112 µM [activator, full curve, poor fit]",
Cc1ccnc2nc(C(=O)OCCOc3ccc(Cl)cc3)nn12,"inconclusive: 6.31 µM [activator, single point]",
Oc1cccc(Nc2nc(-c3ccccc3Cl)nc3ccccc23)c1,"inconclusive: 17.8 µM [inhibitor, single point]",
COc1ccc(CCNC(=O)CCn2c(=O)c3ccccc3n(Cc3ccccc3C)c2=O)cc1OC,"inconclusive: 2.82 µM [inhibitor, partial curve, poor fit]",
Cc1ccc(C)c(OCCOCCN2CCOCC2)c1,,inactive: 2.95%
COc1cccc(NC(=O)COC(=O)CCC2CCCC2)c1,,inactive: 15.6%

# Random excerpt: 3 records from the list.
Structure (SMILES),Potency,"activity change, negative = inhibition"
Nc1nc(=O)n(C2CC(O)C(CO)O2)cc1F (configuration not stated),"inconclusive: 0.1 µM [inhibitor, full curve, poor fit]",
c1ccc(OCc2ccc(CCCN3CCOCC3)cc2)cc1,"inconclusive: 0.562 µM [activator, full curve, poor fit]",
O=C(/C=C/c1ccco1)Oc1cc(Br)cc(/C=N/NC(=O)c2ccccc2O)c1,"inconclusive: 2.82 µM [inhibitor, full curve]",

# Continued.

Structure (SMILES),Potency,"activity change, negative = inhibition"
O=C(c1ccc(Br)s1)N1CCN(c2ccccn2)CC1,,inactive: 14.8%
COc1cccc(NCc2cc(=O)oc3cc(-c4ccccc4)c(O)cc23)c1,"inconclusive: 0.891 µM [activator, full curve, poor fit]",
CCOC(=O)CS(=O)(=O)c1ccccc1,,inactive: 20%
CCc1ccc(NC(=O)C2CC(=O)Nc3ncnn32)cc1 (configuration not stated),"inconclusive: 6.31 µM [activator, partial curve, poor fit]",
Cc1ccc2oc(C(=O)Nc3ccc(S(=O)(=O)Nc4nc(C)cc(C)n4)cc3)cc(=O)c2c1,,inactive: -0.324% [at 46.1 µM]
O=C(CSc1n[nH]c(-c2cccs2)n1)N1CCOCC1,"inconclusive: 5.62 µM [activator, single point]",
O=C(CNS(=O)(=O)c1cccs1)N1CCCC1,"inconclusive: 25.1 µM [activator, single point]",
O=C(Nc1ccccc1)c1cccnc1NCCc1ccccc1,"inconclusive: 3.55 µM [activator, single point]",
Cc1nn(-c2ccccc2)c2c1CC1(C(=O)N(C)C(=O)N(C)C1=O)C1CCCCN21 (configuration not stated),"inconclusive: 2.51 µM [activator, partial curve, poor fit]",
CCOC(=O)N/N=C/C=C/c1ccccc1[N+](=O)[O-],,inactive: 7.24% [at 46.1 µM]
O=C(Cn1nnc(-c2cccs2)n1)OC1CCCCC1,"inconclusive: 25.9 µM [activator, single point]",
CCCn1c(N2CCN(C(=O)/C=C/C(=O)O)CC2)nc2ccccc21,"inconclusive: 3.55 µM [activator, partial curve, poor fit]",
COc1ccccc1N1CCN(S(=O)(=O)CCNC(=O)CCCc2ccccc2)CC1,"inconclusive: 35.5 µM [inhibitor, single point]",
O=CN1CCN(C2CC(=O)N(c3ccc(Br)cc3)C2=O)CC1 (configuration not stated),,inactive: 1.92% [at 46.1 µM]
Cc1ccc(S(=O)(=O)NC(CCC(N)=O)C(=O)NCc2ccc3c(c2)OCO3)c(C)c1 (configuration not stated),,inactive: -0.934% [at 46.1 µM]
COc1ccc(C)cc1NC(=O)C(OC(=O)C1CC1)c1ccccc1 (configuration not stated),"inconclusive: 3.98 µM [activator, full curve, poor fit]",
CC(C)Cn1c(-c2cc(Br)ccc2F)nc2c1c(=O)[nH]c(=O)n2CC(C)C,"inconclusive: 35.5 µM [inhibitor, partial curve, poor fit]",
CN(Cc1cnn(C)c1)C(=O)C1CCC(=O)N(Cc2cccc(C(F)(F)F)c2)C1 (configuration not stated),"inconclusive: 3.55 µM [inhibitor, single point]",
N#C/C(=C\c1ccc(-c2ccccc2Cl)o1)C(=O)Nc1nc2ccccc2s1,"inconclusive: 3.16 µM [activator, single point]",
O=C(COC(=O)COc1ccccc1[N+](=O)[O-])Nc1ccccc1Br,"inconclusive: 3.16 µM [activator, single point]",
O=C(NS(=O)(=O)c1ccc(F)cc1)O[C@@H]1C(=O)c2cc(Br)ccc2O[C@H]1c1ccc2c(c1)OCO2,"inconclusive: 0.75 µM [activator, partial curve, poor fit]",
